Laboratory results: paper PMC11237466

Chains of the proteins cited; added tags and fusions are not shown.
UniProt P0DTD2: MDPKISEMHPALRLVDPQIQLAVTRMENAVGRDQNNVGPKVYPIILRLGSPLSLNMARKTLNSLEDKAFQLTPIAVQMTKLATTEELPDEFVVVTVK
UniProt Q7Z6Z7: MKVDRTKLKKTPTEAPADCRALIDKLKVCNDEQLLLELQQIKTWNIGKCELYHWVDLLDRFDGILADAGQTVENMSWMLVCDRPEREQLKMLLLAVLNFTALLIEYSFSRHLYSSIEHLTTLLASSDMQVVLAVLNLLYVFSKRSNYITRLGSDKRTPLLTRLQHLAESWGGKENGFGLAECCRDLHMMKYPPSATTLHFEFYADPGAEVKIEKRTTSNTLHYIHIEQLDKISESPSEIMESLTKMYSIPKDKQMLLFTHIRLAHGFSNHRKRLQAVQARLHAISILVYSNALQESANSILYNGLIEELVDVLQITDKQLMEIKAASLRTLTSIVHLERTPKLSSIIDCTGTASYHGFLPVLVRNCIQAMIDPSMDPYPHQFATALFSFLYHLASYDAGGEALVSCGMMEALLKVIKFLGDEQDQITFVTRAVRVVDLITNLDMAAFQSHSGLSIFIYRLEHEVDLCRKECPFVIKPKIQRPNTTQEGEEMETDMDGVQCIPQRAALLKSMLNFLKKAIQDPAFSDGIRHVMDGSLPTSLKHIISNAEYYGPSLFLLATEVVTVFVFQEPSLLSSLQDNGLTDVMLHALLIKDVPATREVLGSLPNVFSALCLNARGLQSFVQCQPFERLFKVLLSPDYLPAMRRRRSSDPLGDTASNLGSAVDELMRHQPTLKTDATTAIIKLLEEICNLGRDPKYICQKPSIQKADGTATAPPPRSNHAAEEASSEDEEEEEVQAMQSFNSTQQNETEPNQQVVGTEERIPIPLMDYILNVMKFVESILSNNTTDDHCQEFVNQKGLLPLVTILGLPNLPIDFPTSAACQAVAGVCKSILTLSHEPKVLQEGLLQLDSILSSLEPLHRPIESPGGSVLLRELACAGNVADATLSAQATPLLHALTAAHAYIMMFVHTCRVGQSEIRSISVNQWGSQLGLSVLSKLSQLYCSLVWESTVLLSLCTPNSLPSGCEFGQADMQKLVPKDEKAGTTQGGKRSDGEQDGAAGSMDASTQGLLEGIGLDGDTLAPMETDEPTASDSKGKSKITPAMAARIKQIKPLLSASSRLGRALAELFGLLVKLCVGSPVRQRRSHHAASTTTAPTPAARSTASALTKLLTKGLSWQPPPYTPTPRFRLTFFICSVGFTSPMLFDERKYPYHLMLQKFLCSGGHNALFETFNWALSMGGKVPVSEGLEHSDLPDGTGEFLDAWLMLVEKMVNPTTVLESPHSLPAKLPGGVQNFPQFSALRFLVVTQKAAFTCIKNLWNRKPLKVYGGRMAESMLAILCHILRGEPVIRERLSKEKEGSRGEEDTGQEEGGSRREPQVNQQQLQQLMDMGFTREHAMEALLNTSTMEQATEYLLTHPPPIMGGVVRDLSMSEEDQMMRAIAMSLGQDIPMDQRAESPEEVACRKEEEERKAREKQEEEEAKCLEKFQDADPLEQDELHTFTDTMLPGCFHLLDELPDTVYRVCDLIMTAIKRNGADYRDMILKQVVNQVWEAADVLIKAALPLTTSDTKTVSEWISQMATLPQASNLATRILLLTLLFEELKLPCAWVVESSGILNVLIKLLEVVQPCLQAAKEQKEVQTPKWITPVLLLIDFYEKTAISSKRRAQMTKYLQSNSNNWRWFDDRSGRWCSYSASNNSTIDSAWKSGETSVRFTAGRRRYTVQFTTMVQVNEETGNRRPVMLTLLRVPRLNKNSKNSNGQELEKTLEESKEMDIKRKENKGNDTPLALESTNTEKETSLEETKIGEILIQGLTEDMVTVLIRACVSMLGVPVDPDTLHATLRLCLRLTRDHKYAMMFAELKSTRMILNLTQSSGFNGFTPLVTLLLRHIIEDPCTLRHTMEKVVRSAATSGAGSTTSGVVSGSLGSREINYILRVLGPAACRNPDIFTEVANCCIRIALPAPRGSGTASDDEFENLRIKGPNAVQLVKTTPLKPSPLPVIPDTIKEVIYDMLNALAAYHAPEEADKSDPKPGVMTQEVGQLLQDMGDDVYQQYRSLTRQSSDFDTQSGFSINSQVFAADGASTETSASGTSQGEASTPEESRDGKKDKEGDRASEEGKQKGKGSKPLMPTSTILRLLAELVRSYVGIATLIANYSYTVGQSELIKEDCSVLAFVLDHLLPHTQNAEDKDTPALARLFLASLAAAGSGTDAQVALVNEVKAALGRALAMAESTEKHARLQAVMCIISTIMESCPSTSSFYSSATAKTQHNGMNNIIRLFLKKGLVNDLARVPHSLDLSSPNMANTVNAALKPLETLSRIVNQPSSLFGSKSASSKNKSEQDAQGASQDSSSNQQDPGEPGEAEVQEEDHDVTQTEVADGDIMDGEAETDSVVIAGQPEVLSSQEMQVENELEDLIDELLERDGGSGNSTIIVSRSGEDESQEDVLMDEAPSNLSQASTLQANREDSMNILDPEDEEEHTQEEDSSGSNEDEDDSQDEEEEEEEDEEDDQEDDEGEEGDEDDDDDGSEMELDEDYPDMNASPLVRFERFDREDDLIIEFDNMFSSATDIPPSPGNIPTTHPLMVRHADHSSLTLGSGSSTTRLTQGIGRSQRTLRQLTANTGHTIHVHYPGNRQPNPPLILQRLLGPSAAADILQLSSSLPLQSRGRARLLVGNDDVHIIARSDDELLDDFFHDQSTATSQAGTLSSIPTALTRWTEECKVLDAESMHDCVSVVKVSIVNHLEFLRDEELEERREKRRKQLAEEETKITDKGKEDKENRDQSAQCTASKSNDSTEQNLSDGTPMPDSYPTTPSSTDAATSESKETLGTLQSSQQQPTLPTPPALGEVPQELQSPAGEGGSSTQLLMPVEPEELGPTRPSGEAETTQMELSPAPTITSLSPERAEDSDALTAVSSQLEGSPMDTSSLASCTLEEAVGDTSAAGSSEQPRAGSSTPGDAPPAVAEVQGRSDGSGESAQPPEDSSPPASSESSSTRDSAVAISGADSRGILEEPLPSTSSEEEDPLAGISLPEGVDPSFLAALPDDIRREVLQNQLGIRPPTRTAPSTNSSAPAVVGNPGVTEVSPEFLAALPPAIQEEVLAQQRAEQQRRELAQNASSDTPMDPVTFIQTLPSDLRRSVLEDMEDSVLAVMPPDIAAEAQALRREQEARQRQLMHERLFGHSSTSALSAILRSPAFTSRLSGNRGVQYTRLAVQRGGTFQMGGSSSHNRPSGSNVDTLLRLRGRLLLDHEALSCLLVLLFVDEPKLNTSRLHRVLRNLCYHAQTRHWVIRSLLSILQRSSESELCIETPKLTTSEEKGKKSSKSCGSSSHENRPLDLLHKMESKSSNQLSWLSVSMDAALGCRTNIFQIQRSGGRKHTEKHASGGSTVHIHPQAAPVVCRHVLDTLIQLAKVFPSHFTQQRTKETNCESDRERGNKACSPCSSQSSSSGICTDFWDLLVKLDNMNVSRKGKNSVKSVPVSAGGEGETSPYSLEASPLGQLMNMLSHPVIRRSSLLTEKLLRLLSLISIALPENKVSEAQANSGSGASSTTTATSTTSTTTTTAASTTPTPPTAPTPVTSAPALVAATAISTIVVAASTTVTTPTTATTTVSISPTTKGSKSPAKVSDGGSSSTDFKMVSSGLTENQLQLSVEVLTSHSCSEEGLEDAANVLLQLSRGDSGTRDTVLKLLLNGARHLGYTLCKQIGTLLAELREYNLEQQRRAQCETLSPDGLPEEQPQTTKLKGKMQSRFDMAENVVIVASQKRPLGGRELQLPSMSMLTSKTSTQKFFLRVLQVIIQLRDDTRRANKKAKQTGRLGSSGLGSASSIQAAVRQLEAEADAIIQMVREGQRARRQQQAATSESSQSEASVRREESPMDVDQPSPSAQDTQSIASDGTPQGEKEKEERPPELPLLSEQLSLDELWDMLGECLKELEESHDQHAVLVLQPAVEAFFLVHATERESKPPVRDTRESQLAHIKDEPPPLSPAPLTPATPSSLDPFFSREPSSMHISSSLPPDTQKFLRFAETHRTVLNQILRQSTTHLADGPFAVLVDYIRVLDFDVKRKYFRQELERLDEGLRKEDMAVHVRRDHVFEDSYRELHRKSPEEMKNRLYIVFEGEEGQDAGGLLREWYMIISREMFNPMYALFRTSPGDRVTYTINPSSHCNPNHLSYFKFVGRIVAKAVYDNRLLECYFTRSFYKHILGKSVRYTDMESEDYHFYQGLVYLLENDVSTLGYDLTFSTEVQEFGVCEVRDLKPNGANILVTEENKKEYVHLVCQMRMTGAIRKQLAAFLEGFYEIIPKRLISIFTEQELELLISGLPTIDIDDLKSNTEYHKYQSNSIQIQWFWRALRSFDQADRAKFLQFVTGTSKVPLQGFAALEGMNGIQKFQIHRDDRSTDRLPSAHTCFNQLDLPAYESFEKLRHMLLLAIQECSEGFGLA

Molecular target: SARS-CoV-2 ORF9b-hemagglutinin (ORF9b-HA) (SARS-CoV-2) (UniProt P0DTD2)
Test: affinity purification with mass spectrometry

Substance: HECT, UBA, and WWE domain-containing E3 ubiquitin protein ligase 1 (HUWE1), endogenous (from UniProt Q7Z6Z7 1-4374) (enzyme)
- binding: binds

Results are given in words; binding and its absence hold for the method and conditions named. In cells and extracts the contact can be indirect. A yes stands for co-enrichment or nearness to the bait. Other partners may have been found.
